Hit rate of the full screen: of about 300,000 compounds, about 3,700 (1.2%) were called active. The shares of active, inactive and inconclusive entries below differ from those in the screen. Calls come from the whole dose curve; tested in HEK293 cells. Potencies of inconclusive entries are doubtful fits and often do not repeat.
Assay: qHTS for Inhibitors of binding or entry into cells for Lassa Virus; note: nearly all actives have a fitted effect of over 50% in size
Settings: Lassa virus pseudotype entry inhibition, cell reporter; series mostly up to 37.9 µM
Potency is the fitted concentration of half-maximal effect.

Row | Structure (SMILES) | Potency
1 | CCc1c(C)nc2nncn2c1Nc1ccc(Cl)cc1 | inactive
2 | CC1=CC(=C2C(=O)c3ccccc3C2=O)C=C(C)O1 | inactive
3 | O=S(=O)(c1cccs1)N1CCCc2cccc(O)c21 | inactive
4 | Cc1cccc(C(=O)N/N=C/c2ccccn2)c1 | inactive
5 | CCN(CC)c1ccc(/C=N\NC(=O)c2cccc3cc[nH]c23)cc1 | inconclusive: 20 µM [inhibitor, single point]
6 | COc1cccc(C(=O)NCCN2CCOCC2)c1 | inconclusive: 7.3 µM [activator, partial curve, poor fit]
7 | Cc1ccc(/C=N/n2c(C3CCCCC3)n[nH]c2=S)s1 | inconclusive: 2.51 µM [inhibitor, full curve, poor fit]
8 | NC(=O)c1ccc(OCC2CCCO2)cc1 (configuration not stated) | inconclusive: 15.8 µM [activator, partial curve, poor fit]
9 | N/C(=N\OC(=O)c1ccc(Cl)c(Cl)c1)c1ccccn1 | inconclusive: 16.4 µM [inhibitor, partial curve, poor fit]
10 | NS(=O)(=O)c1ccc(NCc2cc(Cl)ccc2OCc2ccccc2F)cc1 | inactive
11 | CC(C)(C)OC(=O)N1CCC(c2c(C(=O)NCCc3ccsc3)cnn2-c2ccccc2Cl)CC1 | inconclusive: 25.1 µM [inhibitor, single point]
12 | CCC(CC)C(=O)OCc1cc(=O)n2nc(C3CCCCC3)sc2n1 | inconclusive: 8.91 µM [activator, partial curve, poor fit]
13 | Cc1ccc(-c2c(C(=O)N3CCN(c4cccc(C)c4)C(C)C3)oc(=O)c3ccccc23)cc1 (configuration not stated) | inconclusive: 11.2 µM [inhibitor, partial curve]
14 | CCOc1ccc(CN2CCc3nc(N4CCN(c5ncccn5)CC4)ncc3C2)cc1OC | inactive
15 | O=C(Nc1nccs1)NC1CCCCC1 | inactive
16 | COC(=O)C1=C(C)N=C2SCCC(=O)N2C1c1ccc(OCc2ccccc2)c(OC)c1 (configuration not stated) | inconclusive: 1.78 µM [inhibitor, full curve]
17 | O=C(NCCC1=CCCCC1)c1ccc(CN2CCOCC2)cc1 | inconclusive: 1.78 µM [activator, partial curve, poor fit]
18 | COC(=O)C1=C(C)N(Cc2ccccc2)C(=NCCCCO)NC1c1cccc(F)c1 (configuration not stated) | inconclusive: 6.68 µM [inhibitor, single point]
19 | CC(C)Cc1nc2oc3c(NCC4CCCO4)ncnc3c2c2c1CCC2 (configuration not stated) | inactive
20 | Cc1ccc(S(=O)(=O)CCC(=O)OCC(=O)NNC(=O)c2ccc([N+](=O)[O-])cc2)cc1 | inactive
21 | Cc1ccc(NC(=O)Cn2ccc(=O)[nH]c2=O)cc1 | inactive
22 | CCSc1ccc(C(=O)Nc2ccc(-c3nc4ccc(C)cc4s3)cc2)cc1 | inconclusive: 3.16 µM [activator, single point]
23 | COc1ccc2c(C)c(CCC(=O)NCc3ccc(C)cc3)c(=O)oc2c1 | inactive
24 | CCCc1cc(=O)[nH]c(SCC(=O)Nc2ccc(Br)cc2)n1 | inactive

Row | Structure (SMILES) | Potency
25 | Cc1ccc(-c2cc(-c3ccccc3C)[nH]n2)c(O)c1 | inconclusive: 1.26 µM [activator, partial curve, poor fit]
26 | CCOc1ccc(S(=O)(=O)Nc2cccc(C(=O)N(C)CC(=O)Nc3ccc(OC)cc3)c2)cc1 | inconclusive: 35.5 µM [inhibitor, single point]
27 | Cc1nc2ccccc2c(N)c1C(=O)/C=C/c1ccccc1 | active: 10 µM
28 | O=C(NC1CC1)C1CCN(C2CCN(C(=O)c3c(F)cccc3Cl)CC2)CC1 | inactive
29 | Cc1cc(C)cc(NC(=O)CCc2nnc3n(C)c(=O)c4sccc4n23)c1 | inactive
30 | COc1cccc(C(=O)NCC(=O)OCc2ccc(F)cc2Cl)c1 | inconclusive: 9.2 µM [activator, partial curve, poor fit]
31 | COc1ccc(CC(=O)O/N=C(\N)c2ccccn2)cc1OC | inconclusive: 10 µM [activator, partial curve]
32 | O=C(N/N=C/c1c[nH]c2ccccc12)C1COc2ccccc2O1 (configuration not stated) | inconclusive: 6.31 µM [inhibitor, partial curve]
33 | CCOC(=O)N1C(=O)C2(CCCCC2)N(c2ccccc2Cl)C1=S | inconclusive: 23.1 µM [inhibitor, single point]
34 | Cc1cc(=O)[nH]c2ccc(S(=O)(=O)N3CCOCC3)cc12 | inactive
35 | O=C(CCCSc1nc2ccccc2[nH]1)N1CCN(c2ccccc2)CC1 | inactive
36 | COc1ccc(OC)c(CCNC(=O)c2cc3cccc4c3n2CC(C)S4)c1 (configuration not stated) | inactive
37 | Cn1c2ccccc2c2c(C(=O)N3CCN(c4cccc(Cl)c4)CC3)cn(C3CCCCC3)c(=O)c21 | inconclusive: 35.5 µM [inhibitor, single point]
38 | COc1cc(C(=O)/C=C/c2cccnc2)ccc1O | inconclusive: 17.8 µM [inhibitor, partial curve, poor fit]
39 | Cc1ccc(Cl)cc1N1CCN(C(=O)c2ccc(NS(=O)(=O)c3c(C)noc3C)cc2)CC1 | inconclusive: 14.1 µM [inhibitor, partial curve, poor fit]
40 | O=C(NCc1ccc2c(c1)CCN2C(=O)c1ccncc1)c1ccccc1Cl | inconclusive: 15.8 µM [inhibitor, single point]
41 | COc1cccc(-c2cc(C(=O)NCc3cccs3)no2)c1 | inactive
42 | COCC(=O)N(C)c1nnc(-c2ccccn2)s1 | inconclusive: 3.55 µM [activator, single point]
43 | Cn1c(=O)n(C)c2cc(N3CCOCC3)c(NC(=O)c3ccc(Cl)cc3)cc21 | inactive
44 | COc1ccc(S(=O)(=O)Nc2ccccc2C(=O)NCc2cccnc2)cc1 | inconclusive: 1 µM [inhibitor, full curve, poor fit]
45 | COc1ccc(OC)c(N2CC(O)=C(c3nc4ccccc4s3)C2=N)c1 | inconclusive: 23.1 µM [inhibitor, single point]
46 | COc1ccc(C(=O)Nn2c(SCc3ccc([N+](=O)[O-])cc3)nc3ccccc3c2=O)cc1 | inconclusive: 31.6 µM [inhibitor, single point]
47 | COc1ccc(NC(=O)CC2C(=O)N(C)C(=S)N2CCc2ccccc2)cc1 (configuration not stated) | inconclusive: 23.1 µM [inhibitor, partial curve]

Some of these compounds in order of length of the SMILES, ascending:
Row | Structure (SMILES) | Potency
33 | CCOC(=O)N1C(=O)C2(CCCCC2)N(c2ccccc2Cl)C1=S | inconclusive: 23.1 µM [inhibitor, single point]
28 | O=C(NC1CC1)C1CCN(C2CCN(C(=O)c3c(F)cccc3Cl)CC2)CC1 | inactive
46 | COc1ccc(C(=O)Nn2c(SCc3ccc([N+](=O)[O-])cc3)nc3ccccc3c2=O)cc1 | inconclusive: 31.6 µM [inhibitor, single point]

— PubChem BioAssay AID540256 (National Center for Advancing Translational Sciences (NCATS), 2011)
